Results are given in words; binding and its absence hold for the method and conditions named. Some results given as binding are weak or reduced against the parent protein; the word gives no strength.
Columns and labels:
[1] = target: soluble recombinant integrin αIIbβ3 (UniProt P08514); experiment: ELISA-type binding, cell-free, 1 mM Mn2+
[2] = target: soluble recombinant integrin αvβ3 (UniProt P06756); experiment: ELISA-type binding, cell-free, 1 mM Mn2+
[3] = target: soluble recombinant integrin αIIbβ3 (UniProt P08514); experiment: ELISA-type binding, 1 mM Mn2+
[4] = target: soluble recombinant integrin αvβ3 (UniProt P06756); experiment: ELISA-type binding, 1 mM Mn2+
[5] = target: soluble recombinant integrin αIIbβ3 (UniProt P08514); experiment: ELISA-type binding, authentic PF4 6.25 µg/ml, 1 mM Mn2+
[6] = target: soluble recombinant integrin αvβ3 (UniProt P06756); experiment: as above

Sequences of proteins named here, by UniProt entry; tags and fusion partners are left off. A change or cut given only in a name is not applied to a line headed by its entry.
UniProt P08514: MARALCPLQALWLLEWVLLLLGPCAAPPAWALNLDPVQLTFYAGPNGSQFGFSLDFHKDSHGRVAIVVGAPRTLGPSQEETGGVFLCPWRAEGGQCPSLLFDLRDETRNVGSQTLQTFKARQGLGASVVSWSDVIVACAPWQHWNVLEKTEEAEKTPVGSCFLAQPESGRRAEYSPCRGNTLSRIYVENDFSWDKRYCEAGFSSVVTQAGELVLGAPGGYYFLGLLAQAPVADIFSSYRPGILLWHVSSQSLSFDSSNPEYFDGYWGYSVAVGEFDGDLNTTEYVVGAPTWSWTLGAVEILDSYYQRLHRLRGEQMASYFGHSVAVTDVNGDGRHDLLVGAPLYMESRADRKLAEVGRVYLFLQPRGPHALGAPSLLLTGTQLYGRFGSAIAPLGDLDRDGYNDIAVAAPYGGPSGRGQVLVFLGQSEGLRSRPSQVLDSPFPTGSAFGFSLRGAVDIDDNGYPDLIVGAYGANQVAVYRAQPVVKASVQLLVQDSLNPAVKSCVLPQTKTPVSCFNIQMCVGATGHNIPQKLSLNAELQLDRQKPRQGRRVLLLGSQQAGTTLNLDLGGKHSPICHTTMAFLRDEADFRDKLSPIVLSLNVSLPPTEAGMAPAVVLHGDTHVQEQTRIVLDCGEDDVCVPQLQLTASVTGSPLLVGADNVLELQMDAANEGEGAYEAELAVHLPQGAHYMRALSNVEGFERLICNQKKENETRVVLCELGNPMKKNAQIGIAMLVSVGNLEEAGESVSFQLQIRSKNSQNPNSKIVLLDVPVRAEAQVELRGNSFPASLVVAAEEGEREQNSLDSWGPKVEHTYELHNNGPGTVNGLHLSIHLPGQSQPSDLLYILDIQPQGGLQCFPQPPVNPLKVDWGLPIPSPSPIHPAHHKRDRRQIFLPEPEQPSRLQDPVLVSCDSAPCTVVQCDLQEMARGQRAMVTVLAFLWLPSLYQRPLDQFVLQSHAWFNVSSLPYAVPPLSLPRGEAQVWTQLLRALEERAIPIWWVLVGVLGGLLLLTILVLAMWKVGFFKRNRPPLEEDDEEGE
UniProt P06756: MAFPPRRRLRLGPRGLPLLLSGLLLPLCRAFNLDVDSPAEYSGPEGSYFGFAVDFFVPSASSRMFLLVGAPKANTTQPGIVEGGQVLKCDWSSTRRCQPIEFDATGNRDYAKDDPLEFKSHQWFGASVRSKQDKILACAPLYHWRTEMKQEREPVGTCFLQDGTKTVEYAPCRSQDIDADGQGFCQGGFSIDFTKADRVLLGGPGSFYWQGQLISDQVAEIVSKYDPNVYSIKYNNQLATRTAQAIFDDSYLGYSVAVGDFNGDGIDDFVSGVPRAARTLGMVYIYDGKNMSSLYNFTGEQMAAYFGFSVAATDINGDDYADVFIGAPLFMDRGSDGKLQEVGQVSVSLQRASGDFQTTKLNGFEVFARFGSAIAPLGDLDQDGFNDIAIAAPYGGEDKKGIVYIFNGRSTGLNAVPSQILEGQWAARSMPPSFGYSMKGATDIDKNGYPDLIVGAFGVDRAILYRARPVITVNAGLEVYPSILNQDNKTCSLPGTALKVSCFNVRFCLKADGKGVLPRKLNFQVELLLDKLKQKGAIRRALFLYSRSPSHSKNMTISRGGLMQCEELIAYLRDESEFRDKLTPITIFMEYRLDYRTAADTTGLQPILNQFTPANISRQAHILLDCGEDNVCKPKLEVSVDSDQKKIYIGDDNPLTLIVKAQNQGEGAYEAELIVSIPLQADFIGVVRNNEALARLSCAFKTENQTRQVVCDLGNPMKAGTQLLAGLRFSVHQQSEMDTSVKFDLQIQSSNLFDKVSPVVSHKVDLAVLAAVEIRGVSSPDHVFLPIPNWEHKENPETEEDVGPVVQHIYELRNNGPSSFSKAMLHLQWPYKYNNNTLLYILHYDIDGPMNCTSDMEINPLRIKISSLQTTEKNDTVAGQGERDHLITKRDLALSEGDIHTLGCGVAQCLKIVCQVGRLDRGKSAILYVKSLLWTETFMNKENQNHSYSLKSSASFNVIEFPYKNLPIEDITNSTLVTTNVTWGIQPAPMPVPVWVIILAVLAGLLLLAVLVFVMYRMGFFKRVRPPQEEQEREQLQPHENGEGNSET

Measured: binding

B1: PF4 (platelet factor 4, chemokine CXCL4), preparation generated in the inventors' lab (ligand, not shown: small tags and cut ends)
chain: EAEEDGDLQCLCVKTTSQVRPRHITSLEVIKAGPHCPTAQLIATLKNGRKICLDLQAPLYKKIIKKLLES
binds: [1] | [2]

B2: authentic PF4 (Invitrogen) (ligand, UniProt P02776 32-101, looked up)
chain: B1 chain
binds: [3] | [4] | [5] | [6]

Reference: patent US20250003978A1, “DIAGNOSIS AND TREATMENT OF ANTI-PF4 INDUCED THROMBOCYTOPENIA” (The Regents of the University of California, priority 2021, published 2025)
